These are yes or no findings as the source states them, for the method shown. Some binding calls cover weakened binding; strength is not graded here.
Legend:
Assay in all cases: cryo-EM structure
[1] = target: POLA1 (human) (UniProt P09884)
[2] = target: T1, TEN1 (human) (UniProt Q86WV5)
T1 sequence: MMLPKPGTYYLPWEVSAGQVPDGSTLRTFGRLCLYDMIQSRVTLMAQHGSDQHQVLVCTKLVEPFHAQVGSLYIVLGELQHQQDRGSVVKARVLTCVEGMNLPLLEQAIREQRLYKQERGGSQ

Sequences of proteins named here, by UniProt entry; tags and fusion partners are left off.
UniProt P09884: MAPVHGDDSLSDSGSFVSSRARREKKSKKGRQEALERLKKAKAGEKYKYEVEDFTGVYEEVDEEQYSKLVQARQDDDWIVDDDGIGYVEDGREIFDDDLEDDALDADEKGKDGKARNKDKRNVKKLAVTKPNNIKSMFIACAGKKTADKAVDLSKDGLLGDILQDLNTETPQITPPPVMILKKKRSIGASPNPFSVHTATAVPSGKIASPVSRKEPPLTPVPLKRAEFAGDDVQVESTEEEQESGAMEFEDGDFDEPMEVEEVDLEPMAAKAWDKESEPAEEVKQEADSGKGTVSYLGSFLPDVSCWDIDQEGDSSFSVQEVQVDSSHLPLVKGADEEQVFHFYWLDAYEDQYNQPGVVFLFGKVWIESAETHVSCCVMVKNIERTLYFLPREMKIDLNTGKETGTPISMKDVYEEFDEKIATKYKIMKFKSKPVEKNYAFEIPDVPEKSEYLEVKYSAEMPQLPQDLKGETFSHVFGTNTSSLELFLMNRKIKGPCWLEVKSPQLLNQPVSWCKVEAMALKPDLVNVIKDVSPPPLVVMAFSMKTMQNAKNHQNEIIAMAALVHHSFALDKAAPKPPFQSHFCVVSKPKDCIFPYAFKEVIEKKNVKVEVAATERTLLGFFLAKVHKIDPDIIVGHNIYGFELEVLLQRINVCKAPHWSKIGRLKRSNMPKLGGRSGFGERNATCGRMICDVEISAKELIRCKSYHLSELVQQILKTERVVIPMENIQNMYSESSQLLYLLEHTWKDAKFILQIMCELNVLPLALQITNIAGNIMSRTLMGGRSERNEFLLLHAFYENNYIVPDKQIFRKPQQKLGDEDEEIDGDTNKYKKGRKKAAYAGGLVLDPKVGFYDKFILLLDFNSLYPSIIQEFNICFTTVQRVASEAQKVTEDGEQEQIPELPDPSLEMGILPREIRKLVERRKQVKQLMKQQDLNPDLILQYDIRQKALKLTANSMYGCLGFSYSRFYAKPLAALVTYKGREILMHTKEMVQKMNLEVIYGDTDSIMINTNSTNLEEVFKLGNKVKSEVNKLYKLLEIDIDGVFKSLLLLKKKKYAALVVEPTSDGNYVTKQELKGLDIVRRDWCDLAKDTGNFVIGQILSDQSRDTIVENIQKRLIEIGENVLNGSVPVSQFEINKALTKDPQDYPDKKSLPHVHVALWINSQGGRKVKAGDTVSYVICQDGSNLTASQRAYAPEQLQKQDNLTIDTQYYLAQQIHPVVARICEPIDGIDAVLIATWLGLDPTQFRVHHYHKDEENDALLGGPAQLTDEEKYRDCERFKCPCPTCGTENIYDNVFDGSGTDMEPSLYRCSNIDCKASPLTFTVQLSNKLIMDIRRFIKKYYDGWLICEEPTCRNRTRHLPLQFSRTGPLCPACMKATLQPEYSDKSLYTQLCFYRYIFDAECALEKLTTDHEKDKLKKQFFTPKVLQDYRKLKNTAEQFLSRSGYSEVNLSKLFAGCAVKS

[3] = target: T2, PRIM1 (human) (UniProt P49642)
T2 sequence: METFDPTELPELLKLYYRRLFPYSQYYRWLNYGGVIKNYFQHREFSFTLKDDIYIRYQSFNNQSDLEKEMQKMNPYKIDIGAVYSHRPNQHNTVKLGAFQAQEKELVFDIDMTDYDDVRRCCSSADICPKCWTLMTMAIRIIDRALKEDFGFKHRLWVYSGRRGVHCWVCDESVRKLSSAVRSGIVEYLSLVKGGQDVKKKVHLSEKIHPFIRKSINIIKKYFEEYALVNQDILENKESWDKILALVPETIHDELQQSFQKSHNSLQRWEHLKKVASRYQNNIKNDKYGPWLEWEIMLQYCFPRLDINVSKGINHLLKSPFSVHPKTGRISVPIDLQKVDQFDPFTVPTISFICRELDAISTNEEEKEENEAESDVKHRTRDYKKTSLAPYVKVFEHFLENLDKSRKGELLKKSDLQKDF

[4] = target: T3, CTC1 (human) (UniProt Q2NKJ3)
T3 sequence: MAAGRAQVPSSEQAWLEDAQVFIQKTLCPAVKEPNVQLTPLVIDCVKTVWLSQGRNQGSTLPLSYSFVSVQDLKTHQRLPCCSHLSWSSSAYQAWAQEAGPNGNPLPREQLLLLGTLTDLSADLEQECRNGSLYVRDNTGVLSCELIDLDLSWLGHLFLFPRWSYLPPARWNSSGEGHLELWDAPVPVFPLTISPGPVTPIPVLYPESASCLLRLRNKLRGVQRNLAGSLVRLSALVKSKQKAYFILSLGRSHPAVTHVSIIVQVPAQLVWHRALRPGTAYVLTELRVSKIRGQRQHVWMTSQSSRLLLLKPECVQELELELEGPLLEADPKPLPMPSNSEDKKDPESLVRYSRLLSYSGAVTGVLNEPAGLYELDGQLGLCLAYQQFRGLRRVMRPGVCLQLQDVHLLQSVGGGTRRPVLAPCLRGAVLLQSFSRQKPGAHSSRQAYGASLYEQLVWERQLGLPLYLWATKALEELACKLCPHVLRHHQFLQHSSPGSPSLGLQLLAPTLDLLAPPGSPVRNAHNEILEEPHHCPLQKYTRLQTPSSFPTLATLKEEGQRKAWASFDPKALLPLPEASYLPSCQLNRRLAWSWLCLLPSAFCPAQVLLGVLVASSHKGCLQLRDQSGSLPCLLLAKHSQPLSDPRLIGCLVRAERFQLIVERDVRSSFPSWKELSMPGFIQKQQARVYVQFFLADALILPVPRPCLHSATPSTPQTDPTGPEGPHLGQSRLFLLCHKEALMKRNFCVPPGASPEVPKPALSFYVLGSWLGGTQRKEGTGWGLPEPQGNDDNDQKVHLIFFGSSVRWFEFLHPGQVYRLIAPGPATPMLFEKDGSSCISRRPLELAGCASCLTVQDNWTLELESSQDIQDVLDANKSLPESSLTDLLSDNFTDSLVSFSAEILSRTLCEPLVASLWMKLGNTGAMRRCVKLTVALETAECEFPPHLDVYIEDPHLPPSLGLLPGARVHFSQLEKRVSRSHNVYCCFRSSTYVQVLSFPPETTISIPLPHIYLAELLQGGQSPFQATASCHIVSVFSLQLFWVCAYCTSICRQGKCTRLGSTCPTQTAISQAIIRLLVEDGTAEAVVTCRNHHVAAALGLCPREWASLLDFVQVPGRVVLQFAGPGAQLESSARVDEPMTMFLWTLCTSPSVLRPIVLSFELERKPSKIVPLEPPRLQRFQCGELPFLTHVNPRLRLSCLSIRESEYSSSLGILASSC

[5] = target: T4, PRIM2 (human) (UniProt P49643)
T4 sequence: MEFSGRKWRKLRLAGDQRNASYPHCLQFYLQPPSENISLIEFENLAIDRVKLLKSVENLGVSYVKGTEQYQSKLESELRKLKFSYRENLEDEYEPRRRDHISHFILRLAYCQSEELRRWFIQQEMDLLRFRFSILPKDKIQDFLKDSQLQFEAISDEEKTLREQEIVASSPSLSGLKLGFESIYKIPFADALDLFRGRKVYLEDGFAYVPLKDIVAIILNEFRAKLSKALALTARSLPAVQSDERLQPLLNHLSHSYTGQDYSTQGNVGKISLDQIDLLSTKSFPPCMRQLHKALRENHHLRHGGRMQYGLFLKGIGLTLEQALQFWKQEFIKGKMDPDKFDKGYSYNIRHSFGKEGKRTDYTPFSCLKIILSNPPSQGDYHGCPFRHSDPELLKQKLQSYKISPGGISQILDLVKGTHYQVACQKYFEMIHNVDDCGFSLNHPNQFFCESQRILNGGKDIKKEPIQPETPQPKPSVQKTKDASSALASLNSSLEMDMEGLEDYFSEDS

[6] = target: T5, POLA2 (human) (UniProt Q14181)
T5 sequence: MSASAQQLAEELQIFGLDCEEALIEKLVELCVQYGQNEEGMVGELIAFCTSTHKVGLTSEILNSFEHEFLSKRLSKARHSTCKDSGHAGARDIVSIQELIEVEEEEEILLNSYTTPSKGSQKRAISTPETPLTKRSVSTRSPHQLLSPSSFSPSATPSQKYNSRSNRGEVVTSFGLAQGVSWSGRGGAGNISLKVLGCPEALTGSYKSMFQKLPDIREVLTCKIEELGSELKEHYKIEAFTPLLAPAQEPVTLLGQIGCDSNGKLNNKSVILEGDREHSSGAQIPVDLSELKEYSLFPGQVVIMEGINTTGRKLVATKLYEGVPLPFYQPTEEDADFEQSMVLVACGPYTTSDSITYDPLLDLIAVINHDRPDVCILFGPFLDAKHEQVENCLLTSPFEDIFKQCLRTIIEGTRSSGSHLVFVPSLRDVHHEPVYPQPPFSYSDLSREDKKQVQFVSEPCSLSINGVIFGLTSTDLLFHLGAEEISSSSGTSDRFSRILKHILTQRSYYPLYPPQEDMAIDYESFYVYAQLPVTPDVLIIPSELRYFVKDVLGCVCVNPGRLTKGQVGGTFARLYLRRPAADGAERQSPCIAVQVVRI

Measured: binding

B1: CTC1 (protein, UniProt Q2NKJ3 1-1217)
chain: T3 sequence
binds: [1]

B2: STN1 (protein, UniProt Q9H668 1-368)
chain: MQPGSSRCEEETPSLLWGLDPVFLAFAKLYIRDILDMKESRQVPGVFLYNGHPIKQVDVLGTVIGVRERDAFYSYGVDDSTGVINCICWKKLNTESVSAAPSAARELSLTSQLKKLQETIEQKTKIEIGDTIRVRGSIRTYREEREIHATTYYKVDDPVWNIQIARMLELPTIYRKVYDQPFHSSALEKEEALSNPGALDLPSLTSLLSEKAKEFLMENRVQSFYQQELEMVESLLSLANQPVIHSASSDQVNFKKDTTSKAIHSIFKNAIQLLQEKGLVFQKDDGFDNLYYVTREDKDLHRKIHRIIQQDCQKPNHMEKGCHFLHILACARLSIRPGLSEAVLQQVLELLEDQSDIVSTMEHYYTAF
binds: [2] | [3] | [4] | [1]

B3: TEN1 (protein, UniProt Q86WV5 1-123)
chain: T1 sequence
binds: [3] | [1] | [5] | [6]

— article doi:10.1101/2021.12.16.472968
